Positions count from the first letter of the chain named. In names and notes the source's numbering stands. Results are given in words; binding and its absence hold for the method and conditions named. Some entries that bind do so weakly or less than the wild type. One block for each binder: values may come before it.
Assays:
[1] = biological target: mouse TRIM72 R^3E (R368E, R369E, R371E) (mouse) (UniProt Q1XH17); test: cross-linking; time course; preincubation with small liposomes (30 mol% DPPS, 70 mol% DOPC) in DPBS at room temperature for 30 min, then 20 μM BMOE; SDS-PAGE, Coomassie; both purified
[2] = biological target: mouse TRIM72 wild type (tripartite motif-containing protein 72) (mouse) (UniProt Q1XH17); test: cross-linking; oxidizing conditions by the addition of H2O2, without PS liposomes; higher-order oligomers of the dimer; both purified
[3] = biological target: mouse TRIM72 K^2D (K460D, K462D) (mouse) (UniProt Q1XH17); test: cross-linking; time course; preincubation with small liposomes (30 mol% DPPS, 70 mol% DOPC) in DPBS at room temperature for 30 min, then 20 μM BMOE; SDS-PAGE, Coomassie; both purified
[4] = biological target: mouse TRIM72 ΔH3 (deletion of residues 272–281) (mouse) (UniProt Q1XH17); test: as above

B2: mouse TRIM72 wild type (tripartite motif-containing protein 72) (natural protein, UniProt Q1XH17 1-477, looked up)
chain: MSAAPGLLRQELSCPLCLQLFDAPVTAECGHSFCRACLIRVAGEPAADGTVACPCCQAPTRPQALSTNLQLSRLVEGLAQVPQGHCEEHLDPLSIYCEQDRTLVCGVCASLGSHRGHRLLPAAEAQARLKTQLPQQKMQLQEACMRKEKTVAVLEHQLVEVEETVRQFRGAVGEQLGKMRMFLAALESSLDREAERVRGDAGVALRRELSSLNSYLEQLRQMEKVLEEVADKPQTEFLMKFCLVTSRLQKILSESPPPARLDIQLPVISDDFKFQVWKKMFRALMPALEELTFDPSSAHPSLVVSSSGRRVECSDQKAPPAGEDTRQFDKAVAVVAQQLLSQGEHYWEVEVGDKPRWALGVMAADASRRGRLHAVPSQGLWLLGLRDGKILEAHVEAKEPRALRTPERPPARIGLYLSFADGVLAFYDASNPDVLTPIFSFHERLPGPVYPIFDVCWHDKGKNAQPLLLVGPEQEQA
notes: TRIM72 (MG53), Mus musculus, wild type, full length; Tight dimer in solution by SEC-MALS; higher-order assembly only on PS liposomes; also called TRIM72 WT; MG53; source: E. coli BL21(DE3), purified (AC, IEX, SEC); not shown: His6, N-terminal, cleaved; MBP, N-terminal, cleaved
binding [2]: no binding (condition: without PS liposomes)

B3: mouse TRIM72 K^2D (K460D, K462D) (protein, UniProt Q1XH17 1-477)
chain: B2 chain with K460D, K462D
binding [3]: binds weakly

Second part, the binder after the results:

binding [1]: binds weakly
B1: mouse TRIM72 R^3E (R368E, R369E, R371E) (protein, UniProt Q1XH17 1-477)
chain: B2 chain with R368E, R369E, R371E

binding [4]: binds weakly
B4: mouse TRIM72 ΔH3 (deletion of residues 272–281) (protein, UniProt Q1XH17)
chain: MSAAPGLLRQELSCPLCLQLFDAPVTAECGHSFCRACLIRVAGEPAADGTVACPCCQAPTRPQALSTNLQLSRLVEGLAQVPQGHCEEHLDPLSIYCEQDRTLVCGVCASLGSHRGHRLLPAAEAQARLKTQLPQQKMQLQEACMRKEKTVAVLEHQLVEVEETVRQFRGAVGEQLGKMRMFLAALESSLDREAERVRGDAGVALRRELSSLNSYLEQLRQMEKVLEEVADKPQTEFLMKFCLVTSRLQKILSESPPPARLDIQLPVISDDRALMPALEELTFDPSSAHPSLVVSSSGRRVECSDQKAPPAGEDTRQFDKAVAVVAQQLLSQGEHYWEVEVGDKPRWALGVMAADASRRGRLHAVPSQGLWLLGLRDGKILEAHVEAKEPRALRTPERPPARIGLYLSFADGVLAFYDASNPDVLTPIFSFHERLPGPVYPIFDVCWHDKGKNAQPLLLVGPEQEQA

From PMC10643145, “Structure and activation of the RING E3 ubiquitin ligase TRIM72 on the membrane” (Nature Structural & Molecular Biology, 2023)
